Measured values taken from article PMC6983213, “Combining Chalcones with Donepezil to Inhibit Both Cholinesterases and Aβ Fibril Assembly” (Molecules, 2019).
Counter-ions that a name gives are not always drawn.

Chains of the proteins cited; added tags and fusions are not shown. Residues count along the entry.
UniProt P05067, 672-713: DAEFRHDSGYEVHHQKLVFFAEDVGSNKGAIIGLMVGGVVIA

Legend:
[1] = target: T1, N-biotinyl-Aβ(1–42) (bioAβ42) oligomer assembly (Homo sapiens, UniProt P05067); assay type: biochemical; conditions: 1.56 to 50 μM; alone or in 1:1 / 1:1:1 mixtures
T1 construct: N-biotinyl Aβ(1–42) (bioAβ42) was purchased from Anaspec; purchased Anaspec (Fremont, CA, USA) AS-23523-05
Procedure: We first examined the effect of the synthesized 1,3- and 1,4-chalcone-donepezil hybrids 15a–15f and 16a–16f on the assembly of N-biotinyl-Aβ(1–42) (bioAβ42) monomers into oligomers. We quantified the assembly of bioAβ42 into soluble oligomers by using an ELISA assay in which the soluble oligomers were captured on NeutrAvidin^TM-coated ELISA plates and detected with streptavidin-horseradish peroxidase and colorimetric readout (Figure 3).
The plates were then stored in their blocked form at 4 °C prior to use for the oligomer assembly and dissociation assays.
The assembly of bioAβ42 into soluble oligomers was quantified with an ELISA assay in which the soluble oligomers were captured with the NeutrAvidin^TM coating the ELISA plates. The bound oligomers were detected with streptavidin-horseradish peroxidase (SA-HRP). […] Below, please find the details of the three steps (Steps 1–3) used for the oligomer assembly assay.
Step 1: Preparation of monomeric bioAβ42. For a low background, it was essential to rigorously pretreat the bioAβ42 peptide to convert (disaggregate) the multimeric species that form upon storage in the solid state, or even frozen in 1,1,1,3,3,3-hexafluoroisopropanol (HFIP) to monomers. […]
Step 3: Measurement of bioAβ42 oligomers. […] The absorbance of each well was read at 450 nm with a BioTek HT Synergy plate reader. […]

[2] = target: T2, preformed bioAβ42 oligomers (Homo sapiens, UniProt P05067); experiment: bioAβ42 oligomer dissociation assay (NeutrAvidin ELISA); assay type: biochemical; conditions: 0.01 to 50 μM; ~18 h; alone or in 1:1 / 1:1:1 mixtures
T2 construct: N-biotinyl Aβ(1–42) (bioAβ42) was purchased from Anaspec; purchased Anaspec (Fremont, CA, USA) AS-23523-05
Procedure: Dissociation of preformed oligomers of bioAβ42 was measured by pretreating biotinylated oligomers with solvent controls or compounds for a period of time, capturing them with NeutrAvidin^TM on ELISA plates, and detecting the remaining bound oligomers with SA-HRP [77] as described above. Below, please find the details of the two steps (Steps 1 and 2) used for the oligomer dissociation assay.
Step 1: Preformed bioAβ42 oligomers (sufficient for 400 wells). In total, 1 μg of bioAβ42 peptide (1 mg/mL dissolved in HFIP) was pipetted into 20 μL of HFIP in a polypropylene microfuge tube, and dried to a thin film under a gentle air or N2 stream. The film was dissolved in 250 μL of DMSO and vortexed. […] After incubation at rt for 1 h with intermittent vortexing, 0.375 mL of 100 mM Tween 20 (10% v/v) in distilled H2O was added to make the final Tween 20 concentration 0.3% v/v. The preformed oligomers were mixed by inversion and aliquoted for storage at −75 °C. Note: Multiple freeze-thaw cycles should be avoided.
Step 2: Oligomer dissociation assay. […] Then, 25 μL of the preformed bio42 oligomers adjusted to 0.6% v/v Tween 20 was pipetted into each well of a polypropylene 96-well plate. […] The plates were sealed and shaken at 150 rpm overnight at rt. […] The oligomer content of that aliquot was measured as described for the bioAβ42 oligomer assembly assay. […]

COc1cc2c(cc1OC)C(=O)C(CC1CCN(Cc3ccccc3)CC1)C2 (centres unmarked) [Donepezil·HCl, reference compound]
bioAβ42 oligomer assembly inhibition (in words) [1]: did not inhibit bioAβ42 assembly | dissociation of preformed bioAβ42 oligomers (in words) [2]: did not dissociate the preformed oligomers
